For at least one compound, name, drawing or mass did not settle the structure.
Tested on: Enterococcus faecalis NCTC 775
Test: Nitroreductase detection on Columbia agar, colonies read under UV
Type: cell-based
Conditions: 100 mg/l in Columbia agar, 24 h 37° C.
Protocol: A mass of 40 mg of each substrate was dissolved in 4 ml of dimethylformamide (DMF). This solution was entirely taken up in 400 ml of Columbia agar autoclaved beforehand and kept molten at 50° C. The final concentration for each substrate was 100 mg/l.
Each of the media was distributed into Petri dishes 90 mm in diameter, in a proportion of 20 ml per dish.
18 microorganism strains derived from collections and belonging to various species of bacteria and of yeasts were inoculated onto these media by semi-quantitative isolation of 10 μl of a suspension at 0.5 McFarland diluted to 1/20. The media were incubated for 24 hours at 37° C., then the colonies formed were examined visually under UV illumination at 360-365 nm.

With `O=[N+]([O-])c1ccccc1-c1nc2ccccc2o1` [Substrate 1] the “G: growth, Enterococcus faecails NCTC 775” value was “+”.

In the case of `O=[N+]([O-])c1cc2c(cc1-c1nc3ccccc3o1)OCO2` [Substrate 5], the “G: growth, Enterococcus faecails NCTC 775” value is reported as “+”.

Source: patent US8211662B2, “Nitroreductase enzymatic substrates” (Biomerieux, priority 2007, dated 2012)
